We go through 1 substance from article PMC8408152.

Amino acid sequences for entries named in this document (tags omitted).
UniProt O95166: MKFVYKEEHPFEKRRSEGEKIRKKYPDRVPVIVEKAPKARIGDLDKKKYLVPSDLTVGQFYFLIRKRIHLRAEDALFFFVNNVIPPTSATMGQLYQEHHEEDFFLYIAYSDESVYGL

The target in the experiment is T1, GABAARγ2-GFP (UniProt P18507).
T1 sequence: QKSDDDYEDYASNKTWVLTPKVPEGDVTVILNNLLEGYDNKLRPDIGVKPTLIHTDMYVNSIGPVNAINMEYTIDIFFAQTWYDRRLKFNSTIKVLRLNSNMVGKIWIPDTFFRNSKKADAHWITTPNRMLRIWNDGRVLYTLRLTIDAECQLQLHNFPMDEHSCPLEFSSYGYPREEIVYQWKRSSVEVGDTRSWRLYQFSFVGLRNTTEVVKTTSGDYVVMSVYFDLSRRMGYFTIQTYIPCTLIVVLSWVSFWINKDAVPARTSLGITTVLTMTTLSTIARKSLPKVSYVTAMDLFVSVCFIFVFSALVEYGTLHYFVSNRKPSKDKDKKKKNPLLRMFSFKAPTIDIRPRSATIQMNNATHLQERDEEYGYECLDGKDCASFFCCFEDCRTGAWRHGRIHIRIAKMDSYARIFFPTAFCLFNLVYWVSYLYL
Kind of experiment: co-IP; WT and ATG4D-deficient HEK293T cells overexpressing HA-GABARAP and GABAARγ2-GFP; same protocol as for cerebellum; GFP-Trap agarose beads for 2 h to precipitate the receptor; IgG control.

Results are given in words; binding and its absence hold for the method and conditions named. In cells and extracts the contact can be indirect. Some binding calls cover weakened binding; strength is not graded here. Sequences can lack the tags named with a protein.

Regarding HA-GABARAP (from UniProt O95166 1-117), the binding result is given as “binds”.
